PubChem BioAssay AID1159578 – Peter MacCallum Cancer Centre, 2015
Assay: 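siRNA pools altering how lymphatic endothelial cells close a scratch wound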 (primary screen). Cells: human lymphatic endothelial cells. Knock-down reagent: siRNA pool against human genes, 40 nM. Timing: 48 h after transfection. Measurement: 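High-content imaging of dye-stained cells in a scratch assay measures filled wound area and nuclei per well; duplicate means given as ratio to mock and robust z-score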. Reading the numbers: migration robust z-score: higher = faster migration into the scratch; nuclei per well: higher = more cells in the well. Hit rule: 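Migration changed when robust z exceeds 2 or falls below -2 and mean nuclei number is at least 3300; otherwise not called changed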. Meaning of the calls: active = migration changed; inactive = no migration change, or too few cells.
Shown is a random part of about 18,000 deposited reagents. Of all reagents, about 1,030 (5.7%) are marked active. 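Inactive calls also include pools with fewer than 3300 nuclei, whose migration was not assessed.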 Raw values vary from plate to plate and are shown uncorrected. Unmarked entries are inactive. Not all columns of the deposit are shown.

gene	migration robust z-score	nuclei per well, duplicate mean
TMED4	-1.09	3064
MMS22L	0.39	5101
ABCC6	-1.22	4852
TMEM52B	1.76	5726
H2BW1	0.06	7013
UBXN6	1.3	4302
CD84	-0.38	5680
SPIC	-0.34	6475
CYP4X1	-1.22	3972
GRB10	2.68 (active)	6298
PTCHD4	0.28	6363
CFAP44	0.92	5168
HBM	-0.38	5164
NUDCD2	2	6506
SECTM1	0.33	5516

Taken from above.
For “nuclei per well, duplicate mean”, SECTM1 has 5516
Under “migration robust z-score”, CD84 has -0.38
CFAP44, migration robust z-score → 0.92

More results follow:
gene	migration robust z-score	nuclei per well, duplicate mean
SCGB2B2	0.58	6384
BOLL	0.47	5610
TTC23L	-1.53	5250
RAP1B	1.14	6372
CDKL2	1.04	6727
LRRC4B	0.85	7176
TRMU	2.36 (active)	5054
ORMDL2	0.7	4972
